Test results as given in patent publication US20250154171A1, “RAS INHIBITORS” (Revolution Medicines, Inc., priority 2023, published 2025).
Some of these results come from one statement about several compounds together.

Chains of the proteins cited; added tags and fusions are not shown. Lines headed by an entry give the natural chain unless they say otherwise; changes in a name come on top. Residues count along the entry.
UniProt P01116, 1-188 isoform P01116-2 G12V: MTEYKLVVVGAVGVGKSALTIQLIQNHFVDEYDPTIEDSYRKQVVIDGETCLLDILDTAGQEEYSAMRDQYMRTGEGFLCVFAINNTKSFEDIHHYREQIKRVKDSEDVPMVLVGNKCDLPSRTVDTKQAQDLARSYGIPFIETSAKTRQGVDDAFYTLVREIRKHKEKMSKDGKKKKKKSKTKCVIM
UniProt P62937, whole entry: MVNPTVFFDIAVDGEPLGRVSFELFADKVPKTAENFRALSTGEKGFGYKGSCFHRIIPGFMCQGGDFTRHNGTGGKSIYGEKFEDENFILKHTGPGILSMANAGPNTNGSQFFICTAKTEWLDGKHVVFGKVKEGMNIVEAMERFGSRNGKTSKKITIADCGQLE

Columns and labels:
Capan-1 (K-Ras G12V) = test: CellTiter-Glo cell viability assay, Capan-1; type: cell-based, human; details: 5-day treatment, Capan-1 versus A375
K-RasG12V = K-RasG12V (Homo sapiens, UniProt P01116+P62937, G12V); test: Disruption of BRAF RBD interaction with K-Ras (TR-FRET / MOA assay), K-RasG12V; type: biochemical; details: TR-FRET with cyclophilin A and GST-BRAF RBD, read-out: IC50 with respect to K-RasG12V (disruption of BRAF RBD interaction)

| Compound | decrease in cell viability with respect to KRAS G12V (Capan-1) versus wild-type KRAS (A375) (Capan-1 (K-Ras G12V)) | IC50 (K-RasG12V) [nM] |
| --- | --- | --- |
| CO[C@@H](C)c1ncccc1-c1c2c3cc(ccc3n1CC(F)(F)F)-c1coc(n1)[C@@H](N1CC3(COC3)C1)[C@H](NC(=O)[C@@H]1OC[C@@H]1C)C(=O)N1N[C@H](C(=O)OCC(C)(C)C2)C2CC1C2 (racemic) [Example A113] | greater decrease in cell viability | < 1000 |
| CO[C@@H](C)c1ncccc1-c1c2c3cc(ccc3n1CC(F)(F)F)-c1coc(n1)[C@@H](N1CC3(COC3)C1)[C@H](NC(=O)C13CC(C1)C(C)(C)O3)C(=O)N1CCC[C@H](N1)C(=O)OCC(C)(C)C2 (racemic) [Example A114] | greater decrease in cell viability | < 1000 |
| CO[C@@H](C)c1ncccc1-c1c2c3cc(ccc3n1C1COC1)-c1coc(n1)[C@@H](N1CC3(COC3)C1)[C@H](NC(=O)[C@H]1[C@H](C)[C@@H]1C)C(=O)N1CCC[C@H](N1)C(=O)OCC(C)(C)C2 (racemic) [Example A115] | greater decrease in cell viability | < 1000 |
| CO[C@@H](C)c1ncc(N2CCN(C3CC3)CC2)cc1-c1c2c3cc(ccc3n1CCOC1CCOCC1)-c1coc(n1)[C@@H](N1CC3(COC3)C1)[C@H](NC(=O)C13CC(C1)C(C)(C)O3)C(=O)N1CCC[C@H](N1)C(=O)OCC(C)(C)C2 (racemic) [Example A116] | greater decrease in cell viability | < 1000 |
| CO[C@@H](C)c1ncc(C2CCN(C3CC3)CC2)cc1-c1c2c3cc(ccc3n1CCOC1CCOCC1)-c1csc(n1)[C@@H](N1CC3CC1C3)[C@H](NC(=O)[C@H]1C[C@@H](C)O1)C(=O)N1CCC[C@H](N1)C(=O)OCC(C)(C)C2 (racemic) [Example A117] | greater decrease in cell viability | < 1000 |
| CO[C@@H](C)c1ncc(C2CCN(C3CC3)CC2)cc1-c1c2c3cc(ccc3n1CCOC1CCOCC1)-c1csc(n1)[C@@H](N1CC3(CCCCO3)C1)[C@H](NC(=O)[C@@H]1C[C@@H](C)O1)C(=O)N1CCC[C@H](N1)C(=O)OCC(C)(C)C2 (racemic) [Example A118] | greater decrease in cell viability | < 1000 |
| CO[C@@H](C)c1ncc(C2CCN(C3CC3)CC2)cc1-c1c2c3cc(ccc3n1CCOC1CCOCC1)-c1csc(n1)[C@@H](N1CC3(CCCCO3)C1)[C@H](NC(=O)[C@H]1C[C@@H](C)O1)C(=O)N1CCC[C@H](N1)C(=O)OCC(C)(C)C2 (racemic) [Example A119] | greater decrease in cell viability | < 1000 |
| CO[C@@H](C)c1ncc(N2CCN(C3CC3)CC2)cc1-c1c2c3cc(ccc3n1CCOC1CCOCC1)-c1csc(n1)[C@@H](N1CC3(CCCCO3)C1)[C@H](NC(=O)[C@@H]1C[C@@H](C)O1)C(=O)N1CCC[C@H](N1)C(=O)OCC(C)(C)C2 (racemic) [Example A120] | greater decrease in cell viability | < 1000 |
| CO[C@@H](C)c1ncc(N2CCN(C3CC3)CC2)cc1-c1c2c3cc(ccc3n1CCOC1CCOCC1)-c1csc(n1)[C@@H](N1CC3(CCCCO3)C1)[C@H](NC(=O)[C@H]1C[C@@H](C)O1)C(=O)N1CCC[C@H](N1)C(=O)OCC(C)(C)C2 (racemic) [Example A121] | greater decrease in cell viability | < 1000 |
| CO[C@@H](C)c1ncc(N2CCN(C3CC3)CC2)cc1-c1c2c3cc(ccc3n1CCOC1CCOCC1)-c1csc(n1)[C@@H](N1CC3(CCCOC3)C1)[C@H](NC(=O)[C@@H]1C[C@@H](C)O1)C(=O)N1CCC[C@H](N1)C(=O)OCC(C)(C)C2 (racemic) [Example A122] | greater decrease in cell viability | < 1000 |
| CO[C@@H](C)c1ncc(N2CCN(C3CC3)CC2)cc1-c1c2c3cc(ccc3n1CCOC1CCOCC1)-c1csc(n1)[C@@H](N1CC3(CCCOC3)C1)[C@H](NC(=O)[C@H]1C[C@@H](C)O1)C(=O)N1CCC[C@H](N1)C(=O)OCC(C)(C)C2 (racemic) [Example A123] | greater decrease in cell viability | < 1000 |
| CO[C@@H](C)c1ncc(N2CCN(C3CC3)CC2)cc1-c1c2c3cc(ccc3n1CCOC1CCOCC1)-c1csc(n1)[C@@H](N1CC3(CCOC3)C1)[C@H](NC(=O)[C@@H]1C[C@@H](C)O1)C(=O)N1CCC[C@H](N1)C(=O)OCC(C)(C)C2 (racemic) [Example A124] | greater decrease in cell viability | < 1000 |
| CO[C@@H](C)c1ncc(N2CCN(C3CC3)CC2)cc1-c1c2c3cc(ccc3n1CCOC1CCOCC1)-c1csc(n1)[C@@H](N1CC3(CCOC3)C1)[C@H](NC(=O)[C@H]1C[C@@H](C)O1)C(=O)N1CCC[C@H](N1)C(=O)OCC(C)(C)C2 (racemic) [Example A125] | greater decrease in cell viability | < 1000 |
| CO[C@@H](C)c1ncc(N2CCN(C3CC3)CC2)cc1-c1c2c3cc(ccc3n1CCOC1CCOCC1)-c1csc(n1)[C@@H](N1CC(C)(C)C1)[C@H](NC(=O)[C@@H]1C[C@@H](C)O1)C(=O)N1CCC[C@H](N1)C(=O)OCC(C)(C)C2 (racemic) [Example A126] | greater decrease in cell viability | < 1000 |
| CO[C@@H](C)c1ncc(N2CCN(C3CC3)CC2)cc1-c1c2c3cc(ccc3n1CCOC1CCOCC1)-c1csc(n1)[C@@H](N1CC3CC1C3)[C@H](NC(=O)[C@@H]1C[C@@H](C)O1)C(=O)N1CCC[C@H](N1)C(=O)OCC(C)(C)C2 (racemic) [Example A127] | greater decrease in cell viability | < 1000 |
| CO[C@@H](C)c1ncccc1-c1c2c3cc(ccc3n1CCOC1CCOCC1)-c1csc(n1)[C@@H](N1CC3(CCO3)C1)[C@H](NC(=O)[C@@H]1OC[C@@H]1C)C(=O)N1CCC[C@H](N1)C(=O)OCC(C)(C)C2 (racemic) [Example A128] | greater decrease in cell viability | < 1000 |
| CO[C@@H](C)c1ncc(C2CN(C)C2)cc1-c1c2c3cc(ccc3n1CCOC1CCOCC1)-c1csc(n1)[C@@H](N1CC(C)(OC)C1)[C@H](NC(=O)[C@@H]1OC[C@@H]1C)C(=O)N1CCC[C@H](N1)C(=O)OCC(C)(C)C2 (racemic) [Example A129] | greater decrease in cell viability | < 1000 |
| CO[C@@H](C)c1ncc(C2CCN(C)CC2)cc1-c1c2c3cc(ccc3n1CCOC1CCOCC1)-c1csc(n1)[C@@H](N1CC(C)(OC)C1)[C@H](NC(=O)[C@@H]1OC[C@@H]1C)C(=O)N1CCC[C@H](N1)C(=O)OCC(C)(C)C2 (racemic) [Example A130] | greater decrease in cell viability | < 1000 |
| CO[C@@H](C)c1ncc(C2CCN(C3CC3)CC2)cc1-c1c2c3cc(ccc3n1CCOC1CCOCC1)-c1csc(n1)[C@@H](N1CC(C)(OC)C1)[C@H](NC(=O)[C@@H]1OC[C@@H]1C)C(=O)N1CCC[C@H](N1)C(=O)OCC(C)(C)C2 (racemic) [Example A131] | greater decrease in cell viability | < 1000 |
